From patent US20230257472A1
No constants are given. Whether binding was seen depends on the method and setting. Some entries that bind do so weakly or less than the wild type.

Columns and labels:
[1] = molecular target: T1, human CD70 on cells (CD70-positive 786-O cells, Raji cells, CHO-S cells expressing human full-length CD70, U266 cells) (human) (UniProt P32970); experiment: flow cytometry on CD70-positive Raji cells, Alexa Fluor 488 goat anti-human (H+L) detection
T1 sequence (looked up): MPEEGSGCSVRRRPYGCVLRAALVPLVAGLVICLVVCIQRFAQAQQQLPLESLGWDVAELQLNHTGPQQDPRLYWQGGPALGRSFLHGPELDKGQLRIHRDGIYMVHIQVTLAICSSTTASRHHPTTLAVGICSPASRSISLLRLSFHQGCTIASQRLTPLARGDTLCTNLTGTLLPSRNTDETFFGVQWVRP

[2] = molecular target: T1, human CD70 on cells (CD70-positive 786-O cells, Raji cells, CHO-S cells expressing human full-length CD70, U266 cells) (human); experiment: flow cytometry on CD70-positive 786-O cells, Alexa Fluor 488 goat anti-human (H+L) detection

B1: 41D12 (afuc) (antibody, human IgG1, lambda, V domains shown)
VH: EVQLVESGGGLVQPGGSLRLSCAASGFTFSVYYMNWVRQAPGKGLEWVSDINNEGGTTYYADSVKGRFTISRDNSKNSLYLQMNSLRAEDTAVYYCARDAGYSNHVPIFDSWGQGTLVTVSS
VL: QAVVTQEPSLTVSPGGTVTLTCGLKSGSVTSDNFPTWYQQTPGQAPRLLIYNTNTRHSGVPDRFSGSILGNKAALTITGAQADDEAEYFCALFISNPSVEFGGGTQLTVLG
modifications: non-fucosylated (heavy chain not modified by fucosylation)
binding [1]: binds
binding [2]: binds
